From PMC3724652
Results are given in words; binding and its absence hold for the method and conditions named. Some results given as binding are weak or reduced against the parent protein; the word gives no strength.

Assays:
[1] = target: GluN1 with a Myc tag between residues 416 and 417 (rat) (UniProt P35439); experiment: AFM imaging of receptor-antibody complexes; receptors isolated through a His8 tag on Ni2+-agarose from a 1% CHAPS extract of membranes (total cellular pool), incubated with antibodies, imaged in air; angles between two bound antibodies
[2] = target: GluN1 with a hemagglutinin (HA)/His8 tag between residues 416 and 417 in the ABD (rat) (UniProt P35439); experiment: as above
WT rat GluN1-1a (rat) [3] = target: WT rat GluN1-1a (rat) (UniProt P35439); experiment: AFM imaging of receptor-antibody complexes; cell surface receptors (biotinylation, avidin-agarose, then antibody-agarose), incubated with antibodies, imaged in air; volumes and angles between two bound antibodies
WT rat GluN1-1a (rat) [4] = target: WT rat GluN1-1a (rat) (UniProt P35439); experiment: AFM imaging of receptor-antibody complexes; FLAG/His8-tagged NMDA receptor purified on Ni2+-agarose and then anti-FLAG-agarose, integrated into liposomes (PC:PS 3:1), incubated with anti-GluN1 for 12 h at 4 °C, imaged under fluid (HBS) in a supported lipid bilayer
WT rat GluN1-1a (rat) [5] = target: WT rat GluN1-1a (rat) (UniProt P35439); experiment: AFM imaging of receptor-antibody complexes; receptors isolated by immunoaffinity chromatography from the total cellular pool, incubated with subunit- or tag-specific antibodies, adsorbed to mica at 0.04 nM, imaged in air in tapping mode; volumes of decorated particles and angles between two bound antibodies

In the case of “GluN1 with a Myc tag between residues 416 and 417 (from UniProt P35439 19-938) (receptor)”, the binding [1] is reported as “binds”.
In the case of “GluN1 with a hemagglutinin (HA)/His8 tag between residues 416 and 417 in the ABD (from UniProt P35439 19-938) (receptor)”, the binding [2] is reported as “binds”.
In the case of “WT rat GluN1-1a (from UniProt P35439 19-938) (receptor)”, the binding (WT rat GluN1-1a (rat) [3]) is reported as “binds”, the binding (WT rat GluN1-1a (rat) [4]) is reported as “binds” and the binding (WT rat GluN1-1a (rat) [5]) is reported as “binds”.
